In all, about 53,000 sequences went through this assay and about 3,700 (7%) were called active.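 Rule for the calls: active = gene knockdowns whose robust z-score for IL-1 alpha signal is at least 2 or at most -2, so actives lie on both sides; inactive = the rest.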 The list shows a part of the results.

This test can be described thus: Components of the Cytosolic LPS Sensing Pathway: Gene Identification via Genome-wide siRNA Screen.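 Note: robust z of the log signal after scaling to non-targeting control siRNA wells of the plate.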 The following applies: RAW264.7 macrophages, IL-1a HTRF, actives lie on both sides, screened at 100 nM (by protocol), cells primed 5 h with Pam3CSK4 first. In short, it runs like this: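 Cells (RAW264.7, 1×10^4 per well) were transfected with siRNA at 100 nM and cultured 48h at 37 degrees C. Pam3CSK4 was added for 5 hours; LipidA transfection followed for 24 hour. IL-1a was then measured by HTRF.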
A general note: Time-resolved FRET reads energy transfer from a long-lived donor to a nearby acceptor.
With GGAGCAUUGCCUUUUAAAGTT against Psph, the z-score was inactive: -0.474.
The value for CCUGGAUACCUUCAACUAUTT against Galnt14 was inactive: -0.209.
Consider GGCGGUGAAGACAUUGAAATT against Stxbp2, for which the z-score was inactive: 1.05.
For the sequence CCUCAUUGAGUUUUGAAGATT against Dtd2, the z-score is inactive: -0.329.
Consider GCGAGUUGCUCUACGUCAUTT against Npvf, for which the z-score was inactive: 0.414.
The result for GGGACUUUCCAGUGUAAAGTT against Npb reads inactive: -0.646.
With GGACAAUUGUAAGGACAGATT against Slc1a6, the z-score is inactive: 0.43.
The value for GGUCUUUGAUGUUUUCACCTT against Togaram2 was inactive: 1.22; that for CCAAUCAACCCUCUAAGCATT against Nphp4 was inactive: 0.576; that for GGACAAGUACGGAAAGCCCTT against Hdgfl2 was inactive: 0.196.
With GGAUAUCCGAGGUGCUGUATT against Aldh16a1, the z-score was inactive: -0.735.
On to GCAUAGAAAGCAUAGGUCCTT against Mrgprx1, for which the z-score is inactive: -0.683.
Consider CCAGGAUGAAAGGUCACACTT against Arhgef38, for which the z-score was inactive: -0.812.
Regarding GCCGUCUAAGUAUCAGAAATT against Abca14, the z-score is inactive: 0.714.
In the case of GGAAAAUGUUGAAGUGGAATT against Ndufa5, the z-score is inactive: -0.805.
As to GGUCUCUGUCUCCAAGAAATT against Fam53c, the z-score is inactive: -1.69.
For GGUCUAGGAAACCUUCAGCTT against Pdzk1ip1, the z-score was inactive: -0.325.
The value for GGUAUAGCCACAGGUACAUTT against Phxr5 was inactive: -0.368.
Regarding GGAAAUUUUUCGUAAGUUGTT against Ncor1, the z-score was inactive: 0.0545.
Consider GGAGCUAUAUUCUCACCCATT against Ptpn1, for which the z-score was active: -2.06.
On to CCCUAUUAAGAUGUCUACGTT against Rwdd2a, for which the z-score is inactive: 0.0237.
Turning to CCGCAUUCCAGAGGAUAACTT against Mgst1, the z-score was inactive: -0.978.
The result for GGCUGAUGGAAAUCCUUAATT against Ctif reads inactive: 0.0158; that for GGAUGUCUUUUUAAGGUUUTT against Eid1, inactive: 0.987; that for GGCUUAAUAUAUCUUGUUCTT against Gja6, inactive: -0.0335.
Regarding GCUACUUUACUACCAGGCCTT against Slc35e3, the z-score was inactive: -1.56.
As to GGUUCUACUUCAGCUGCCUTT against Acer1, the z-score was inactive: -0.568.
In the case of CCUCAUUAGCAACCAAAAGTT against Sptbn4, the z-score is inactive: -0.544.
For the sequence GGCUUGCAUAUCUAUUGGATT against Map2k6, the z-score was active: 2.61.
As to GGAAUGUGUUAUGGUGAUUTT against Mgl2, the z-score is inactive: -1.56.
Regarding GGACAGUGAUGAAGAUAUGTT against Nop2, the z-score is inactive: -0.826.
With GCCUGAAAUCAACUCCACCTT against F2, the z-score is active: 2.21.
For the sequence GCAACUCAUGGUCAAUAUGTT against Ppfia2, the z-score was inactive: 0.808.
Regarding GGAUUUUCAAAGAGGACACTT against Cdca7l, the z-score is inactive: 0.735.
Regarding GGAAGGGUAUAGCCAGUACTT against Thoc7, the z-score was inactive: 1.71.
Take GCAGUAUAUACCCACUCGGTT against Stk17b: the z-score was inactive: -0.249.
The result for GGUUGUGUAAUGAGACUGATT against Olfr914 reads inactive: 0.947.
With GGAGCACAUGCUCAAAAGATT against Pccb, the z-score is inactive: -0.613.
For the sequence GGUGUGUGGUAGAAGACAATT against Lsamp, the z-score was inactive: 0.972.
CGUGACCAACAUGAUACUUTT against Farsa: the z-score was inactive: -0.00218.
In the case of GGCAGUGGGAUUACAAUGATT against Med12, the z-score is active: 2.02.
The result for GCUACCUUAUCAAGAAUGATT against Snap91 reads inactive: -0.506.
The value for GCAAGUUAACCAGACCCAATT against Mro was inactive: 0.709; that for GGACCAUGCUUCGUAUACATT against Idh3b was inactive: -0.423; that for GGAAUUGGGUUCUACAUGCTT against Fam83f was inactive: -0.44.
CGAGAUAAACCUUAGUUCATT against Nudt12: the z-score was inactive: 0.399.
Take GCUGACCCAGCUAUGUACUTT against Ninl: the z-score was inactive: -0.0313.
The result for GCAUAAAGAAGGAAUCACCTT against Psrc1 reads inactive: -1.9; that for GGUUCAUGGGUUUUAAGUGTT against Eif1, active: 2.25; that for GCCCUAGCUUCGAUCUAUUTT against Tcf4, inactive: -0.437.
For CCUCAAUAAAAUCCUGGUGTT against Olfr99, the z-score is inactive: 0.433.
On to GGAAGCCCUAAAAAAGCUGTT against Ciapin1, for which the z-score is inactive: -0.904.
Consider GGUAAGAGGAUGGACACAATT against Chst1, for which the z-score is inactive: 1.08.
Regarding GGAAGUAUUAACAAUGGUGTT against Rassf10, the z-score was inactive: -0.205.
CCUUACUAUGGUUGUCCUGTT against Olfr38: the z-score is inactive: 1.78.
For the sequence CGUAUGUUCUGUCAGAUAUTT against Eef1aknmt, the z-score was inactive: -1.33.
On to GCACCUCAAAAGAAUUCAUTT against Septin10, for which the z-score was inactive: 1.42.
As to GCAUCCUAGAGAAACUGUCTT against Unc50, the z-score is inactive: -0.598.
As for GGAGACCCACUACAUGACUTT against H2-M2, the z-score was inactive: -0.982.
On to GGCAGUCAGCUAAUGCUUATT against Pros1, for which the z-score is inactive: -0.372.
For GCAGAAGUGAUUGAUACACTT against Hars, the z-score is inactive: 0.86.
The result for CCCUCGUUGAAUUAAACUUTT against Zfp385b reads inactive: 0.88.
As to GCAGACUAAAAUCACGACATT against Ednra, the z-score is active: 2.62.
With GGCCUAUUUUAUCCACACUTT against Olfr65, the z-score is inactive: -0.0611.
With GCCUUUUGGAAACUUGCCCTT against Bcat1, the z-score is inactive: -0.564.
For the sequence GCUGUUUAUAUUUCUUGCUTT against Olfr1393, the z-score is inactive: -0.417.
On to GGAGAACUCCUACAUGUCUTT against Irak1, for which the z-score was inactive: -1.62.
Take GGAAAUAGAAGAAAAACUCTT against Arglu1: the z-score is inactive: 1.39.
Turning to GGGUGCAUUUGAGAAGAUCTT against Casd1, the z-score is active: 4.11.
For the sequence GGUAUACUGGUUGGAGGACTT against Slc22a8, the z-score is inactive: 0.94.
GCUGACGUACCCAGUAUCCTT against Pik3r3: the z-score is inactive: -1.21.
As for GGAUGUAUAGGUUCAGCUGTT against Dph2, the z-score is inactive: 0.41.
On to GCAGUAGCAUCCCAUUUGUTT against Ttr, for which the z-score was inactive: -1.75.
In the case of CCAGUUGUGUGCAGUACAGTT against Nat8f4, the z-score is inactive: 0.573.
The value for GGCUGUAGACAUUUUGUCUTT against Sds was inactive: -0.747; that for GGAGAAUAAGCAAAUCCUUTT against Cfap20dc was inactive: -0.937; that for GGUUGUUAAAAAUGUGUCUTT against Ctdspl was inactive: 0.868.
As to GGUGCAUAAACGAUGUGGATT against Zbtb12, the z-score was inactive: 0.489.
In the case of GGGAAAGAAUUGGAUUGAATT against N4bp2l1, the z-score is active: -2.31.
With GGAUCACGCCUUUUGUCAUTT against Eif2d, the z-score is inactive: -0.0659.
In the case of CGAGAAGUGCUGACUCAAUTT against Map2k3os, the z-score was inactive: 0.563.
In the case of GCAUUUGAUACCUUCACUGTT against Krtap19-3, the z-score is inactive: -1.22.
Regarding GCUGUUCAAUUUGAUUACUTT against Dapp1, the z-score was inactive: 1.77.
On to GGAAGUACUUCGAUGAAAATT against Bdh1, for which the z-score is inactive: -0.644.
GGAUGCAGACCAGAACUACTT against C1ql1: the z-score is inactive: 1.6.
GGAGACUGAAGAAGAAUAUTT against Lpin2: the z-score is inactive: 0.87.
The value for CCUCACAAUAUCUUUAGAATT against Cep162 was inactive: -0.0322.
Regarding GGAACUUCCAGAGAUGAGUTT against Bmp2, the z-score is inactive: -0.517.
With CGUGUCUCAUGGCAGAGUUTT against Lamp5, the z-score is inactive: -1.21.
With GGUGGUACGCAAUCAAAAGTT against Galnt17, the z-score was active: 2.46.
Regarding GGUCCUGAUGAAUACAUACTT against Asb10, the z-score is inactive: -0.984.
Consider GGCAGUGAUUGACUUCCUATT against Klhl32, for which the z-score is inactive: 0.985.
For the sequence GGAAAUGUACUGUGCCUGGTT against Ogdh, the z-score is inactive: -0.196.
The value for GGACAUUGAGAUUUAGCCATT against Kcnc2 was inactive: 0.626; that for GGCACACAUUUUCAAGGGCTT against Tanc1 was inactive: -1.73; that for GGAUUGAAAAGAAUAUGCUTT against Tdrd7 was inactive: -1.05.
GGAAUUGUAGAAAGUGUUGTT against Adh4: the z-score is inactive: 1.66.
GGUGAUUUGGCUUCUGCACTT against Sp3: the z-score was inactive: 0.661.
For GGAGAUCAUGUCCAAGUACTT against Syt17, the z-score was inactive: -1.11.
In the case of GGUUGCGUGUGGUUACUAUTT against Herc4, the z-score was inactive: 0.161.
As to GCAUCGACAGUCUCUUCAUTT against Polr2m, the z-score was inactive: -0.69.
The value for GGAGGACCCUAUGUCUAAUTT against Adora1 was active: 4.6.
Take GGAUAGAAACAUUUCUGUGTT against Olfr1145: the z-score is active: 2.1.
CCUGAGUCAGAUUCAUUUATT against Pten: the z-score was inactive: 0.292.
The result for GGAUCAUCAAAACUGACUATT against Sema3d reads inactive: -0.142.
As for GCUCGGAAAACUGGCACUATT against Psmb7, the z-score was inactive: -0.584.
The result for CCUCAUUCUCAUUACGACATT against Acp6 reads inactive: -0.341.

These data come from PubChem BioAssay AID1508600 (Functional Genomics Laboratory (NCATS/FGL), 2020).
